# Assay results published in ChEMBL document CHEMBL1126003 (Bioorg Med Chem Lett, 1991).
# Amino acid sequences for entries named in this document (tags omitted).
# UniProt P02550, whole entry, looked up: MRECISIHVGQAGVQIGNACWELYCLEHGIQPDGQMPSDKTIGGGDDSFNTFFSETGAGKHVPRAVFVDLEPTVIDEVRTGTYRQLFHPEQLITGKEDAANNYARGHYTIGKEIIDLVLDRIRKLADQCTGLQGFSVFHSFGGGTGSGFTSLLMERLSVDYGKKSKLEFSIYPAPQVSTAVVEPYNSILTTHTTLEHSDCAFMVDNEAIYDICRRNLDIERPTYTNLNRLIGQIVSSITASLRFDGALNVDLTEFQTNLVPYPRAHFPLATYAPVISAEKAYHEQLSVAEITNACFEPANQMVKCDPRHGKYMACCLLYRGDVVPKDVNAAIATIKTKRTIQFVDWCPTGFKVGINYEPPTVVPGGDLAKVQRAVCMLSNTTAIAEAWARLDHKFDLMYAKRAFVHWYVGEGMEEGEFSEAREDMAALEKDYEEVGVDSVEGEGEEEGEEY
# Molecular target: Tubulin alpha chain (Sus scrofa, UniProt P02550)
structure (smiles),measurement,value
COc1cc2c(c(OC)c1OC)-c1ccc(SC)c(=O)cc1[C@@H](NC(C)=O)CC2 [THIOCOLCHICINE],Ki,700 nM
